{"source": "PubChem BioAssay AID1159584 | Peter MacCallum Cancer Centre – 2016", "aim": "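Genes whose loss is lethal only together with E-cadherin loss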 (primary screen)", "system": "human MCF10A breast epithelial cells, parental and CDH1-null", "knock-down reagent": "siRNA against human genes", "read-out": "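Cell viability by CellTiter-Glo ATP luminescence, each line scaled to the mean of mock wells across plates, then CDH1-null over parental ratio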", "direction": "CDH1-null / parental viability ratio: higher = CDH1-null cells survive relatively better than parental; CDH1-null viability vs mock: higher = more viable CDH1-null cells", "units": "CDH1-null viability vs mock in fraction of mock", "note": "In all, the deposit lists about 18,000 reagents; this is a part drawn at random. Not all columns of the deposit are shown. Not stated in the record: the amount of reagent, the time to read-out."}
{"target": "FAM107B (family with sequence similarity 107 member B)", "PubChem SID": "SID134318834", "CDH1-null / parental viability ratio": 0.72, "CDH1-null viability vs mock": 0.46}
{"target": "UNC119 (unc-119 lipid binding chaperone)", "PubChem SID": "SID134314452", "CDH1-null / parental viability ratio": 1.07, "CDH1-null viability vs mock": 0.8}
{"target": "MRFAP1 (Morf4 family associated protein 1)", "PubChem SID": "SID134319148", "CDH1-null / parental viability ratio": 0.81, "CDH1-null viability vs mock": 0.88}
{"target": "USP14 (ubiquitin specific peptidase 14)", "PubChem SID": "SID152150087", "CDH1-null / parental viability ratio": 1.42, "CDH1-null viability vs mock": 0.74}
{"target": "SLC24A1", "PubChem SID": "SID152148513", "CDH1-null / parental viability ratio": 1.11, "CDH1-null viability vs mock": 1}
{"target": "MARF1 (meiosis regulator and mRNA stability factor 1)", "PubChem SID": "SID152148614", "CDH1-null / parental viability ratio": 0.9, "CDH1-null viability vs mock": 0.96}
{"target": "LMBRD2 (LMBR1 domain containing 2)", "PubChem SID": "SID152149115", "CDH1-null / parental viability ratio": 1.16, "CDH1-null viability vs mock": 0.78}
{"target": "DOT1L (DOT1 like histone lysine methyltransferase)", "PubChem SID": "SID152152775", "CDH1-null / parental viability ratio": 1.49, "CDH1-null viability vs mock": 0.91}
{"target": "GDF11 (growth differentiation factor 11)", "PubChem SID": "SID134316383", "CDH1-null / parental viability ratio": 1.12, "CDH1-null viability vs mock": 0.56}
{"target": "YJU2B (YJU2 splicing factor homolog B)", "PubChem SID": "SID134318778", "CDH1-null / parental viability ratio": 1.26, "CDH1-null viability vs mock": 0.78}
{"target": "CDC25B (cell division cycle 25B)", "PubChem SID": "SID56478587", "CDH1-null / parental viability ratio": 1.33, "CDH1-null viability vs mock": 0.88}
{"target": "TRIM63 (tripartite motif containing 63)", "PubChem SID": "SID152155905", "CDH1-null / parental viability ratio": 1, "CDH1-null viability vs mock": 0.9}
{"target": "EHBP1 (EH domain binding protein 1)", "PubChem SID": "SID134318244", "CDH1-null / parental viability ratio": 1.02, "CDH1-null viability vs mock": 0.88}
{"target": "LINS1 (lines homolog 1)", "PubChem SID": "SID152153681", "CDH1-null / parental viability ratio": 1, "CDH1-null viability vs mock": 0.56}
{"target": "ZNF641 (zinc finger protein 641)", "PubChem SID": "SID152147725", "CDH1-null / parental viability ratio": 0.81, "CDH1-null viability vs mock": 0.56}
{"target": "GTF2F1 (general transcription factor IIF subunit 1)", "PubChem SID": "SID152155269", "CDH1-null / parental viability ratio": 0.86, "CDH1-null viability vs mock": 0.66}
{"target": "PAK1IP1 (PAK1 interacting protein 1)", "PubChem SID": "SID152152276", "CDH1-null / parental viability ratio": 1.17, "CDH1-null viability vs mock": 0.9}
{"target": "WBP2 (WW domain binding protein 2)", "PubChem SID": "SID152150247", "CDH1-null / parental viability ratio": 1.14, "CDH1-null viability vs mock": 1.12}
{"target": "PLEKHA1 (pleckstrin homology domain containing A1)", "PubChem SID": "SID135623443", "CDH1-null / parental viability ratio": 0.93, "CDH1-null viability vs mock": 0.99}
{"target": "CELSR3 (cadherin EGF LAG seven-pass G-type receptor 3)", "PubChem SID": "SID152151133", "CDH1-null / parental viability ratio": 0.7, "CDH1-null viability vs mock": 0.62}
{"target": "PIN1 (peptidylprolyl cis/trans isomerase, NIMA-interacting 1)", "PubChem SID": "SID152148684", "CDH1-null / parental viability ratio": 1.04, "CDH1-null viability vs mock": 0.79}
{"target": "USP38 (ubiquitin specific peptidase 38)", "PubChem SID": "SID134311507", "CDH1-null / parental viability ratio": 1.28, "CDH1-null viability vs mock": 0.77}
{"target": "CPSF1 (cleavage and polyadenylation specific factor 1)", "PubChem SID": "SID152149653", "CDH1-null / parental viability ratio": 1.03, "CDH1-null viability vs mock": 0.68}
{"target": "CNBP (CCHC-type zinc finger nucleic acid binding protein)", "PubChem SID": "SID135623831", "CDH1-null / parental viability ratio": 0.95, "CDH1-null viability vs mock": 0.79}
{"target": "CCDC120 (coiled-coil domain containing 120)", "PubChem SID": "SID134319183", "CDH1-null / parental viability ratio": 0.64, "CDH1-null viability vs mock": 0.48}
{"target": "METTL21A (methyltransferase 21A, HSPA lysine)", "PubChem SID": "SID134322336", "CDH1-null / parental viability ratio": 0.99, "CDH1-null viability vs mock": 0.87}
{"target": "LYAR (Ly1 antibody reactive)", "PubChem SID": "SID134324746", "CDH1-null / parental viability ratio": 1.8, "CDH1-null viability vs mock": 0.99}
{"target": "BRMS1 (BRMS1 transcriptional repressor and anoikis regulator)", "PubChem SID": "SID152156778", "CDH1-null / parental viability ratio": 1.65, "CDH1-null viability vs mock": 0.66}
{"target": "SERPINF1 (serpin family F member 1)", "PubChem SID": "SID152149788", "CDH1-null / parental viability ratio": 1.31, "CDH1-null viability vs mock": 0.72}
{"target": "TMEM71 (transmembrane protein 71)", "PubChem SID": "SID134320008", "CDH1-null / parental viability ratio": 0.84, "CDH1-null viability vs mock": 0.86}
{"target": "KLHL9 (kelch like family member 9)", "PubChem SID": "SID152154232", "CDH1-null / parental viability ratio": 1.2, "CDH1-null viability vs mock": 1.12}
{"target": "TIAM2 (TIAM Rac1 associated GEF 2)", "PubChem SID": "SID152148794", "CDH1-null / parental viability ratio": 1.03, "CDH1-null viability vs mock": 0.38}
{"target": "PLSCR3 (phospholipid scramblase 3)", "PubChem SID": "SID134314836", "CDH1-null / parental viability ratio": 1.02, "CDH1-null viability vs mock": 0.96}
{"target": "ARMCX1 (armadillo repeat containing X-linked 1)", "PubChem SID": "SID134317432", "CDH1-null / parental viability ratio": 1, "CDH1-null viability vs mock": 0.92}
{"target": "LCP1 (lymphocyte cytosolic protein 1)", "PubChem SID": "SID134316037", "CDH1-null / parental viability ratio": 1.15, "CDH1-null viability vs mock": 0.86}
